# Results taken from article doi:10.1101/2024.07.16.603715.
# The chains behind the UniProt entries cited, without tags or fusion partners. Residues count along the entry.
# UniProt E9Q7X7, residues 29-1710: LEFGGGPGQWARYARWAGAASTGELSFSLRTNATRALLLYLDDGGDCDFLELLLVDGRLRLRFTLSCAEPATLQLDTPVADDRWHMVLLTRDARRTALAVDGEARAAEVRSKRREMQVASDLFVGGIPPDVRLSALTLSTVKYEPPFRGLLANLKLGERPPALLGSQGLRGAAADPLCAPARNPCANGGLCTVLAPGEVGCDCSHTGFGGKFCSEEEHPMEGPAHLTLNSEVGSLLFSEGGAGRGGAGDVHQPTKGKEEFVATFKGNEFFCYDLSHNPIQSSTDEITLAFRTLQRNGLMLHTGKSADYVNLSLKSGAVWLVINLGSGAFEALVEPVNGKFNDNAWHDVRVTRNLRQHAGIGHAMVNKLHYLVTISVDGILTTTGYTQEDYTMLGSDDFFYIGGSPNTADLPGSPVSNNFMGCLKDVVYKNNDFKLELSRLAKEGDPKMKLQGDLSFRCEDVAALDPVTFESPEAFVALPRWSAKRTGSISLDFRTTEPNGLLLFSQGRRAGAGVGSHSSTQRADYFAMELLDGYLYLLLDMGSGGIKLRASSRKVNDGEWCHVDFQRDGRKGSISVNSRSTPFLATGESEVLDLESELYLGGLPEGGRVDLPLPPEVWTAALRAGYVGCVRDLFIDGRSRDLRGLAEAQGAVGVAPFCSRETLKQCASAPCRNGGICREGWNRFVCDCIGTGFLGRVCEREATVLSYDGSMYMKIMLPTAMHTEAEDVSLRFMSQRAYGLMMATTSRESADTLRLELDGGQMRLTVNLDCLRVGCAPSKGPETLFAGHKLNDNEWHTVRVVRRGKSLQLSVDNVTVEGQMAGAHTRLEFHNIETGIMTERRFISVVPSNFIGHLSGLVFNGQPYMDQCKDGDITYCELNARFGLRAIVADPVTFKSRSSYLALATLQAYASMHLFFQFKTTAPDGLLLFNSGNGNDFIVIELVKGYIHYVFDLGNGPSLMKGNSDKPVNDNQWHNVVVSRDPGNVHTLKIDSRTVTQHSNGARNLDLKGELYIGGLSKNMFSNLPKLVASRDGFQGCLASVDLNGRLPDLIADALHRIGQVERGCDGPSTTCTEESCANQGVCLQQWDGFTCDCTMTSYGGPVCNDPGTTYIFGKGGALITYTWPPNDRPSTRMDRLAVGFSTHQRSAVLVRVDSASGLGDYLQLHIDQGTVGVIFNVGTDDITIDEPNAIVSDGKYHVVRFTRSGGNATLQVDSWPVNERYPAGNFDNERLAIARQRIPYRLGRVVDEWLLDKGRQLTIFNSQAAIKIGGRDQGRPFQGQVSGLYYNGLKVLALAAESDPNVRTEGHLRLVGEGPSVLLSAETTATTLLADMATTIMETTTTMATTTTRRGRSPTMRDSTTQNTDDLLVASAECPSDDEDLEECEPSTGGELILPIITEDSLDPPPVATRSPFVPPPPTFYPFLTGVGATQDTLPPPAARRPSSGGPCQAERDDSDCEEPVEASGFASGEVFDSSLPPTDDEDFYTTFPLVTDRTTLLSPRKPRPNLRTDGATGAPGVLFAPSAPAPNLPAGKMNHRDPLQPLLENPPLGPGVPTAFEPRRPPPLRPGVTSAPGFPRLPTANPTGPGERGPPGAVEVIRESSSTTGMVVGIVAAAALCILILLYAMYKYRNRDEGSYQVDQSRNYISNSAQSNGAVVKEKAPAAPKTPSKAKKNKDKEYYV
# UniProt Q9CS84, residues 31-1514: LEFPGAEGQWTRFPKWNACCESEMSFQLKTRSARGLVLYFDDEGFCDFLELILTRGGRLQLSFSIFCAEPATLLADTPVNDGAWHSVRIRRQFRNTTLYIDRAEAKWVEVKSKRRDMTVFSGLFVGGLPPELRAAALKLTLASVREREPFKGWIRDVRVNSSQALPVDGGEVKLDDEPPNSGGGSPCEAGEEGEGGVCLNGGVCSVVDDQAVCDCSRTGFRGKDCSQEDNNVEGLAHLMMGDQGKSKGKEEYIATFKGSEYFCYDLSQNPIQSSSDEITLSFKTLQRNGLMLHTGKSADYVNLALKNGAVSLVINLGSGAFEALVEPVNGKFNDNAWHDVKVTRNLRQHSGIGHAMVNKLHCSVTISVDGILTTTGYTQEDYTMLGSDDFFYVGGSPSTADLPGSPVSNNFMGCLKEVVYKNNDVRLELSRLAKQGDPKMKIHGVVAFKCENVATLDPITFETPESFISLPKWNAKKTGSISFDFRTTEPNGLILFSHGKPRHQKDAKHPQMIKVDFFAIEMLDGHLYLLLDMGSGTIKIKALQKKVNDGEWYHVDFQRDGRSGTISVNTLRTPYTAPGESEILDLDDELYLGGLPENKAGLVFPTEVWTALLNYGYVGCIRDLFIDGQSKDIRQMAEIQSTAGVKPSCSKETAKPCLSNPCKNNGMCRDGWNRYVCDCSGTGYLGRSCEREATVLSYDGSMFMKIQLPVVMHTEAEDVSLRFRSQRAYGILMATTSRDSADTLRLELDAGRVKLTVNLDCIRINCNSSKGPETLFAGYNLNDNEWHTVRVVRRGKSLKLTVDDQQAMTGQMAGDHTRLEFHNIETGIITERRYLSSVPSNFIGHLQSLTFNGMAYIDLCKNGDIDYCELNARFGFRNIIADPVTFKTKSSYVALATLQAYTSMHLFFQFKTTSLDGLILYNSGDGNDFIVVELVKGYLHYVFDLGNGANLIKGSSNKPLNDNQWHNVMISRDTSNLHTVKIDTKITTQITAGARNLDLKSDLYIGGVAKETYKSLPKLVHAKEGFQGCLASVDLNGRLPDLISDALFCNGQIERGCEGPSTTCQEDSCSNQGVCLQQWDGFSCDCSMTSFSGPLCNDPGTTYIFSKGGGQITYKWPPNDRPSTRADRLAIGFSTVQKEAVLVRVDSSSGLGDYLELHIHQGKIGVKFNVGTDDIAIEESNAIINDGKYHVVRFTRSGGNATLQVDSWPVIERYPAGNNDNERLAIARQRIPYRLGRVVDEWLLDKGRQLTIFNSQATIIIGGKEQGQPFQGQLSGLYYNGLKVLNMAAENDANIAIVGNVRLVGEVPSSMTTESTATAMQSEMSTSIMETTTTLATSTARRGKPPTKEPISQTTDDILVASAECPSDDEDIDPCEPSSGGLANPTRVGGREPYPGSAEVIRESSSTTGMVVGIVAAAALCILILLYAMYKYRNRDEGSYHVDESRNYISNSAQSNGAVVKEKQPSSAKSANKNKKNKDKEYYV
# UniProt Q6P9K9, residues 28-1571: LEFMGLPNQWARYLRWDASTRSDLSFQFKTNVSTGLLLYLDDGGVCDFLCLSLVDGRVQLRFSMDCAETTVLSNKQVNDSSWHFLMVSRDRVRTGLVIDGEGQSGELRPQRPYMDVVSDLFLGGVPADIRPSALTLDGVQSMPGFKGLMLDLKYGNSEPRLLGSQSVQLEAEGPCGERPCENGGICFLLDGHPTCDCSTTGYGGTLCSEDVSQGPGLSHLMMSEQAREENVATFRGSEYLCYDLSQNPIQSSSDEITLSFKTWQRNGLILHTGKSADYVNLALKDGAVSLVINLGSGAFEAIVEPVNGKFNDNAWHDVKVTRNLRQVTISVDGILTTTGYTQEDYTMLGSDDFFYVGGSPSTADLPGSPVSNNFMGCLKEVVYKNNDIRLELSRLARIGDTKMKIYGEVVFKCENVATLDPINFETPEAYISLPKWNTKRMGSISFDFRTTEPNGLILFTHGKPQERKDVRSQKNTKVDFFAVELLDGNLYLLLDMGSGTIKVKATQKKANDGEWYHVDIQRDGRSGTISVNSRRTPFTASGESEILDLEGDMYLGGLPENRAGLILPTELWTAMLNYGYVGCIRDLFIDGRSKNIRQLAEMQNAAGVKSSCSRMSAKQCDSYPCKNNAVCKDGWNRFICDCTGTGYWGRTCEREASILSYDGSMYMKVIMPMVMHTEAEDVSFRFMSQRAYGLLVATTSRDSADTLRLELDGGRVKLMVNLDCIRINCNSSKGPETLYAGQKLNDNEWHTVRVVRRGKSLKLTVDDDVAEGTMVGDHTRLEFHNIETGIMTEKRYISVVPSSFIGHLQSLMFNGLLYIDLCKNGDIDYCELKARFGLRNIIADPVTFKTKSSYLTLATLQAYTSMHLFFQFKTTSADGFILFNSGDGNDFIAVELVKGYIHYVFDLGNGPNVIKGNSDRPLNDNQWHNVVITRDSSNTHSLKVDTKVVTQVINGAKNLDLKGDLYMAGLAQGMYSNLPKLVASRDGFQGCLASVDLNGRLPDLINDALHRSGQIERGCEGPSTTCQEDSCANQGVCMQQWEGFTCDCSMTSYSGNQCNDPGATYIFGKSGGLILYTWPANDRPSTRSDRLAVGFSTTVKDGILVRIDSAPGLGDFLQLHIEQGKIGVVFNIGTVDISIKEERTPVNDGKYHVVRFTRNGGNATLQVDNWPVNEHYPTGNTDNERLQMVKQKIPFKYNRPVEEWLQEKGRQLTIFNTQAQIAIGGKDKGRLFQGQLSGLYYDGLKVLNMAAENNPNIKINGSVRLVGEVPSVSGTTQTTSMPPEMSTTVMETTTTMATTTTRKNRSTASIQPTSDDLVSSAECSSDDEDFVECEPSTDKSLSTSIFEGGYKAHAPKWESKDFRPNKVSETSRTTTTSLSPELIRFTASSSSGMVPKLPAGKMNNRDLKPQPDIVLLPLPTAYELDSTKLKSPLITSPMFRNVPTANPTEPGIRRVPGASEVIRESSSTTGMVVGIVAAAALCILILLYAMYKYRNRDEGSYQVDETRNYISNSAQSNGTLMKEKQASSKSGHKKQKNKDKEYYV
# UniProt D3Z7H4: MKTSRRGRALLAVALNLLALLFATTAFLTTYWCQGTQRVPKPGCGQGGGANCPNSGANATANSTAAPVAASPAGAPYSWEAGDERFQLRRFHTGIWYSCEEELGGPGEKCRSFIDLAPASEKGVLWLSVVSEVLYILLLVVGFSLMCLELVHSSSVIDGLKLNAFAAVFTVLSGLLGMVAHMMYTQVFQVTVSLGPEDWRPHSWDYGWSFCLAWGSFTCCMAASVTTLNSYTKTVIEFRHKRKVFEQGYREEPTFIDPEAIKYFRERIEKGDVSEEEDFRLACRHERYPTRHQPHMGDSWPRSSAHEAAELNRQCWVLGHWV
# UniProt O88998, residues 17-485: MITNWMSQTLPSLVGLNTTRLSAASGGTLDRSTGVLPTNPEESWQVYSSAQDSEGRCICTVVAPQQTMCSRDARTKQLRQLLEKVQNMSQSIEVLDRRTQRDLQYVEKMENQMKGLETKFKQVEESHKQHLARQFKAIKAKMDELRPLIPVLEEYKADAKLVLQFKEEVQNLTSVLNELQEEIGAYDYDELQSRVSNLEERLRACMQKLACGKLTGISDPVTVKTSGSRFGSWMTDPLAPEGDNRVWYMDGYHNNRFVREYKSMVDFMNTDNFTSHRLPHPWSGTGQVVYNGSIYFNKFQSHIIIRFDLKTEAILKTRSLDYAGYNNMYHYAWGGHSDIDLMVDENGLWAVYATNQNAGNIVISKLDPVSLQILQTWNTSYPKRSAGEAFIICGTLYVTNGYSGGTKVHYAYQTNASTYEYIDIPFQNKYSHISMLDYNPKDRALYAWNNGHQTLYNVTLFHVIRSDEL
# UniProt O08835: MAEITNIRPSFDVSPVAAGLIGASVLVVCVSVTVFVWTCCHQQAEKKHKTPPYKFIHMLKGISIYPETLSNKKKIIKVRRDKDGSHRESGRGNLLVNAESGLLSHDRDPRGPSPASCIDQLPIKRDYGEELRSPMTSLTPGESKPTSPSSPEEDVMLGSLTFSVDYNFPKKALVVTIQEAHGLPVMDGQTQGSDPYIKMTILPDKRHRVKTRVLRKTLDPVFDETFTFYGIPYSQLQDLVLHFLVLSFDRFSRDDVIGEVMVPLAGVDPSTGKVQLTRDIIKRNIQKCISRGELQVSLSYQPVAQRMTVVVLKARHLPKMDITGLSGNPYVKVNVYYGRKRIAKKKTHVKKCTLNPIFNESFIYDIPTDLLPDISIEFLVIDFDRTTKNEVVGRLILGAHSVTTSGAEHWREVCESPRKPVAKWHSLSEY
# UniProt E9Q6C8: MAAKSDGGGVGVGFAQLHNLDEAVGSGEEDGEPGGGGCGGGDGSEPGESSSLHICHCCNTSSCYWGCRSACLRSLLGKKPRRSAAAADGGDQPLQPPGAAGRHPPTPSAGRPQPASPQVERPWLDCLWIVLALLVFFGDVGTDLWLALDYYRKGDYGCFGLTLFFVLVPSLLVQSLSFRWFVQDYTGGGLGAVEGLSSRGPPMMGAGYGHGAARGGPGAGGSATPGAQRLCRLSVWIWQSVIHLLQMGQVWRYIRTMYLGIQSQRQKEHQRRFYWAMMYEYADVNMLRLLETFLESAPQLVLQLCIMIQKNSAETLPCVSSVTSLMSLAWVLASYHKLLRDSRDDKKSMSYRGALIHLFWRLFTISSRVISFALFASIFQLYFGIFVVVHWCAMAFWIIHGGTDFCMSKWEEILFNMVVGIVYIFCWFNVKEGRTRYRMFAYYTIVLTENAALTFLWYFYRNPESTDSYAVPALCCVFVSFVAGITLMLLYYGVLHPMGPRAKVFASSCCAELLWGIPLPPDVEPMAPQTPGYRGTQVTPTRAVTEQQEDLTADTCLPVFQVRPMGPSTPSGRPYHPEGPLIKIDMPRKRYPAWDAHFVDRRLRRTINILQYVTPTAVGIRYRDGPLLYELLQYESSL
# Results are given in words; binding and its absence hold for the method and conditions named. In cells and extracts the contact can be indirect. A yes stands for co-enrichment or nearness to the bait. Other partners may have been found. For some of these results: No binding means not detected with the bait.
# What was measured:
# Assay in all cases: affinity purification with mass spectrometry
# [1] = biological target: carbonic anhydrase-related protein 10 (CAH10) (mouse (endogenous in adult mouse brain)) (UniProt P61215)
# [2] = biological target: receptor protein tyrosine phosphatase S (PTPRS) (mouse (endogenous in adult mouse brain)) (UniProt B0V2N1)
# [3] = biological target: T1, leucine-rich repeat transmembrane neuronal protein 4 (LRRT4) (mouse (endogenous in adult mouse brain)) (UniProt Q80XG9)
# T1 sequence: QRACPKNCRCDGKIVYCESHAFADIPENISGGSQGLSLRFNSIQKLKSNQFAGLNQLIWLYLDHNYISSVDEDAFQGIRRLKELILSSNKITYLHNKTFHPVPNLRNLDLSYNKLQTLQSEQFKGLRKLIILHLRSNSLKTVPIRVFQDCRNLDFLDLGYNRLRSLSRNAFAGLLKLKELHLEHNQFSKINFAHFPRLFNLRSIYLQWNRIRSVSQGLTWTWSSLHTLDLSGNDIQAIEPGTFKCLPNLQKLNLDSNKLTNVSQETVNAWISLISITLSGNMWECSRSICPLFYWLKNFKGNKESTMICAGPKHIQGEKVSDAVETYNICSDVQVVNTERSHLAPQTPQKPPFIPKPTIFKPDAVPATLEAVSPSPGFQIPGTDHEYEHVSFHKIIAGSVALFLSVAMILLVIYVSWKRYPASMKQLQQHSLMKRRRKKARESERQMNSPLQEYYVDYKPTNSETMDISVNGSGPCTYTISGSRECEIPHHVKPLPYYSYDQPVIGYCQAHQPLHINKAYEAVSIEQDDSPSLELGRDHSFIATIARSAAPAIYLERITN
# [4] = biological target: PTPRS (cultured neurons) (rat (endogenous in cultured neurons)) (UniProt Q64605)
# [5] = biological target: neurexin 2 (NRX2) (mouse (endogenous in adult mouse brain)) (UniProt E9Q7X7)
# [6] = biological target: neurexin 1 (NRX1) (mouse (endogenous in adult mouse brain)) (UniProt Q9CS84)
# [7] = biological target: neurexin 3 (NRX3) (mouse (endogenous in adult mouse brain)) (UniProt Q6P9K9)
# [8] = biological target: T2, neurexophilin 3 (NXPH3) (mouse (endogenous in adult mouse brain)) (UniProt Q91VX5)
# T2 sequence: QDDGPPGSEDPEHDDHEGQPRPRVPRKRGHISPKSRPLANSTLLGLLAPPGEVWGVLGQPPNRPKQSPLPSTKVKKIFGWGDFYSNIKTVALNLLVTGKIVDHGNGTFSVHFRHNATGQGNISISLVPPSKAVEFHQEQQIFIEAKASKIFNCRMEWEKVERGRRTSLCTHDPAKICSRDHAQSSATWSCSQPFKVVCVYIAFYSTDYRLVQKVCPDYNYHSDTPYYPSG
substance,measurement,setting,value
AMPAR subunit GRIA3 (from UniProt Q9Z2W9 23-888),binding,[1],binds
same,binding,[2],binds
Cav2.2 (CAC1B) (from UniProt O55017 1-2327),binding,[2],binds
GSG1l (from UniProt D3Z7H4 1-322),binding,[1],binds
same,binding,[3],binds
same,binding,[2],binds
NOE1 (from UniProt O88998 17-485),binding,[1],binds
same,binding,[2],binds
SYT11 (cultured neurons) (from UniProt O08835 1-430),binding,[4],binds
XK-related protein 6 (XKR6) (from UniProt E9Q6C8 1-638),binding,[5],binds
same,binding,[6],binds
same,binding,[7],binds
carbonic anhydrase-related protein 10 (CAH10) (from UniProt P61215),binding,[2],binds
liprin-α2 (LIPA2) (from UniProt Q8BSS9 1-1257),binding,[2],binds
neurexin 1 (NRX1) (from UniProt Q9CS84 31-1514),binding,[5],no binding
same,binding,[7],no binding
same,binding,[2],binds
neurexin 2 (NRX2) (from UniProt E9Q7X7 29-1710),binding,[6],no binding
same,binding,[7],no binding
same,binding,[2],binds
neurexin 3 (NRX3) (from UniProt Q6P9K9 28-1571),binding,[5],no binding
same,binding,[6],no binding
same,binding,[2],binds
tetraspanin T178B (mouse (endogenous in adult mouse brain)),binding,[3],binds
same,binding,[8],binds
